This data set is described as follows: in vivo. The settings on record: female, SD, rat, iv, 5 mg/kg.

The values below come from patent EP3409295A1 (priority 2016, dated 2017).

In the case of `CN1CC[C@]23c4c5ccc(O)c4O[C@H]2[C@@H](O)C=C[C@H]3[C@H]1C5` [Morphine, morphine], under “brain”, the concentration at 10 min was 2700 ng/g, the concentration at 60 min was 223 ng/g and the concentration at 180 min was 35 ng/g. Moreover, where the note is “plasma”, the concentration at 10 min amounted to 1100 ng/mL, the concentration at 60 min stood at 154 ng/mL and the concentration at 180 min amounted to 10 ng/mL.
